{"sequences": {"note": "By UniProt entry, the sequences of proteins in these tests, tags left out. Where a name states a change or a piece, a line headed by the entry shows the natural chain unless it says otherwise.", "UniProt O75600": "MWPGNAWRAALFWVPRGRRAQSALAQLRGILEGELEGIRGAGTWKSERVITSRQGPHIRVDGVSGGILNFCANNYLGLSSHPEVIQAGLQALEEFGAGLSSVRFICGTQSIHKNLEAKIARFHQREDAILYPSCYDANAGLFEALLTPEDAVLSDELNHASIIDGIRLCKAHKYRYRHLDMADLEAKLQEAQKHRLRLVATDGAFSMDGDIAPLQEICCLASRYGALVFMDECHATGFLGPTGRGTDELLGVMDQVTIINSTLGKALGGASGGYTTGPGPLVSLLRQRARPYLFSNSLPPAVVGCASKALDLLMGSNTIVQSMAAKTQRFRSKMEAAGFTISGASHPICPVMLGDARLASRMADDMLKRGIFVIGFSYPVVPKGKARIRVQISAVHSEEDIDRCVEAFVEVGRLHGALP", "UniProt O95365": "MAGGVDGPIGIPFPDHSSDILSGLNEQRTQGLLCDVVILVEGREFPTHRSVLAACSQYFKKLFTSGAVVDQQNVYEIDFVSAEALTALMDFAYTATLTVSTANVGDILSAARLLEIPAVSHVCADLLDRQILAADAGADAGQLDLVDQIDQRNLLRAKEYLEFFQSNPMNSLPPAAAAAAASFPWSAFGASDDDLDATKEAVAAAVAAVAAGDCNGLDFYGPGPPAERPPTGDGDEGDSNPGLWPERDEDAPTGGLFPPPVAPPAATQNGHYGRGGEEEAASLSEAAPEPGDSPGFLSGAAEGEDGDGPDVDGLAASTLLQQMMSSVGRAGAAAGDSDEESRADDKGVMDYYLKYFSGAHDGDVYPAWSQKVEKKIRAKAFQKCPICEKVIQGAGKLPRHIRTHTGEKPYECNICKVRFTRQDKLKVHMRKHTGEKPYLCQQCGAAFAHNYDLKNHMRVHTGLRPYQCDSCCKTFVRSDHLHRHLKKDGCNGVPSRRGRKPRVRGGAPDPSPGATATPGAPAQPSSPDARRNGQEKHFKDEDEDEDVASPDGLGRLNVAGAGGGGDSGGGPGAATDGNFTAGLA", "UniProt O76080": "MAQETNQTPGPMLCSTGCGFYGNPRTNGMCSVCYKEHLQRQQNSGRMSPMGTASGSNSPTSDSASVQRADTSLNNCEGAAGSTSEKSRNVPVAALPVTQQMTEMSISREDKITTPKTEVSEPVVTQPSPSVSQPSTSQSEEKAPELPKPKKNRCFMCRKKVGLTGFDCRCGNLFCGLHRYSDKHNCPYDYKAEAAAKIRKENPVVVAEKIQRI", "UniProt O95999": "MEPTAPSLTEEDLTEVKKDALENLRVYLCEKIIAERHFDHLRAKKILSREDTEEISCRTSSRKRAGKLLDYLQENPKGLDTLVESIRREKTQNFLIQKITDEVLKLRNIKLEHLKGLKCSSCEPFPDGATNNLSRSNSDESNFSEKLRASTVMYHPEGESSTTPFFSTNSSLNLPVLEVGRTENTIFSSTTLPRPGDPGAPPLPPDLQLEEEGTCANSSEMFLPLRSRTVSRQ", "UniProt O95521": "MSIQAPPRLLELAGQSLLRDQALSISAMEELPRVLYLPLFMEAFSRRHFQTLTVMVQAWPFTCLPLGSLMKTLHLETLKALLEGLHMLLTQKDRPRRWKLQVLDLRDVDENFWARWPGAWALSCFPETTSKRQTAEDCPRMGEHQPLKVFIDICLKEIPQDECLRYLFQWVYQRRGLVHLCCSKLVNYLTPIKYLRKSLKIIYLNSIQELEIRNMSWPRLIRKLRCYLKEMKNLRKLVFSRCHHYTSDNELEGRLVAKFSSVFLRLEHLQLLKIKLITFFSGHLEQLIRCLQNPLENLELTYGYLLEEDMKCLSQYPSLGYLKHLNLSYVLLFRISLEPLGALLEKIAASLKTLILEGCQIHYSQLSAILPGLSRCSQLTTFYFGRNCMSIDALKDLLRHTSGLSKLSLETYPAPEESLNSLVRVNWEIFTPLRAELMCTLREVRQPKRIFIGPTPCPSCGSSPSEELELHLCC", "UniProt O95197": "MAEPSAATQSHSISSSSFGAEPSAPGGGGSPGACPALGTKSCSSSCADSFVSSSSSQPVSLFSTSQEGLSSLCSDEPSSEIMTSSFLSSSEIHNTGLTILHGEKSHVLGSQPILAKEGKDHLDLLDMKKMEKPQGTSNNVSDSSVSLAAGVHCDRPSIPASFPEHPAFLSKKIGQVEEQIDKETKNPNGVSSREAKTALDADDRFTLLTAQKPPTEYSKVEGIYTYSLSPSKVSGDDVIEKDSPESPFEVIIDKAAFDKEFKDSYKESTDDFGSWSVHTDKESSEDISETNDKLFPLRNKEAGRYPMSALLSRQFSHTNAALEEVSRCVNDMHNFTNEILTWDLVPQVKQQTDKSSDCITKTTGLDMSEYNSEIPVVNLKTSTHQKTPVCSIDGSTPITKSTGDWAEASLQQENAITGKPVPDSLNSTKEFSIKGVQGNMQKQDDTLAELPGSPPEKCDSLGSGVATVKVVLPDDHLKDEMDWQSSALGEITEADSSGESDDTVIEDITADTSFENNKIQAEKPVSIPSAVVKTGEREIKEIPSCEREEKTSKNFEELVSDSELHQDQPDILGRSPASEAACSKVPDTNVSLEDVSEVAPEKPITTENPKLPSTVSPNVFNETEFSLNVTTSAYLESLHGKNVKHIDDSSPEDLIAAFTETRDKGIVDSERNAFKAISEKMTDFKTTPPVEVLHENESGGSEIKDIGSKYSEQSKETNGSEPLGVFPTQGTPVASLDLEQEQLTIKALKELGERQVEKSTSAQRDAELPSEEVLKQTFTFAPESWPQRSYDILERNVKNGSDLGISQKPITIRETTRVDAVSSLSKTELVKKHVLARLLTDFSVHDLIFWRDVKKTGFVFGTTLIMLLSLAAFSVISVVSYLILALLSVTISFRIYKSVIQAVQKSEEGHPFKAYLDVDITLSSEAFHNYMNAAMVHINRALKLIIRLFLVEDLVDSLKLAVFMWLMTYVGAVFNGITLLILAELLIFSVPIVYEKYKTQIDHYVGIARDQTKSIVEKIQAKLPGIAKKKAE", "UniProt O94915": "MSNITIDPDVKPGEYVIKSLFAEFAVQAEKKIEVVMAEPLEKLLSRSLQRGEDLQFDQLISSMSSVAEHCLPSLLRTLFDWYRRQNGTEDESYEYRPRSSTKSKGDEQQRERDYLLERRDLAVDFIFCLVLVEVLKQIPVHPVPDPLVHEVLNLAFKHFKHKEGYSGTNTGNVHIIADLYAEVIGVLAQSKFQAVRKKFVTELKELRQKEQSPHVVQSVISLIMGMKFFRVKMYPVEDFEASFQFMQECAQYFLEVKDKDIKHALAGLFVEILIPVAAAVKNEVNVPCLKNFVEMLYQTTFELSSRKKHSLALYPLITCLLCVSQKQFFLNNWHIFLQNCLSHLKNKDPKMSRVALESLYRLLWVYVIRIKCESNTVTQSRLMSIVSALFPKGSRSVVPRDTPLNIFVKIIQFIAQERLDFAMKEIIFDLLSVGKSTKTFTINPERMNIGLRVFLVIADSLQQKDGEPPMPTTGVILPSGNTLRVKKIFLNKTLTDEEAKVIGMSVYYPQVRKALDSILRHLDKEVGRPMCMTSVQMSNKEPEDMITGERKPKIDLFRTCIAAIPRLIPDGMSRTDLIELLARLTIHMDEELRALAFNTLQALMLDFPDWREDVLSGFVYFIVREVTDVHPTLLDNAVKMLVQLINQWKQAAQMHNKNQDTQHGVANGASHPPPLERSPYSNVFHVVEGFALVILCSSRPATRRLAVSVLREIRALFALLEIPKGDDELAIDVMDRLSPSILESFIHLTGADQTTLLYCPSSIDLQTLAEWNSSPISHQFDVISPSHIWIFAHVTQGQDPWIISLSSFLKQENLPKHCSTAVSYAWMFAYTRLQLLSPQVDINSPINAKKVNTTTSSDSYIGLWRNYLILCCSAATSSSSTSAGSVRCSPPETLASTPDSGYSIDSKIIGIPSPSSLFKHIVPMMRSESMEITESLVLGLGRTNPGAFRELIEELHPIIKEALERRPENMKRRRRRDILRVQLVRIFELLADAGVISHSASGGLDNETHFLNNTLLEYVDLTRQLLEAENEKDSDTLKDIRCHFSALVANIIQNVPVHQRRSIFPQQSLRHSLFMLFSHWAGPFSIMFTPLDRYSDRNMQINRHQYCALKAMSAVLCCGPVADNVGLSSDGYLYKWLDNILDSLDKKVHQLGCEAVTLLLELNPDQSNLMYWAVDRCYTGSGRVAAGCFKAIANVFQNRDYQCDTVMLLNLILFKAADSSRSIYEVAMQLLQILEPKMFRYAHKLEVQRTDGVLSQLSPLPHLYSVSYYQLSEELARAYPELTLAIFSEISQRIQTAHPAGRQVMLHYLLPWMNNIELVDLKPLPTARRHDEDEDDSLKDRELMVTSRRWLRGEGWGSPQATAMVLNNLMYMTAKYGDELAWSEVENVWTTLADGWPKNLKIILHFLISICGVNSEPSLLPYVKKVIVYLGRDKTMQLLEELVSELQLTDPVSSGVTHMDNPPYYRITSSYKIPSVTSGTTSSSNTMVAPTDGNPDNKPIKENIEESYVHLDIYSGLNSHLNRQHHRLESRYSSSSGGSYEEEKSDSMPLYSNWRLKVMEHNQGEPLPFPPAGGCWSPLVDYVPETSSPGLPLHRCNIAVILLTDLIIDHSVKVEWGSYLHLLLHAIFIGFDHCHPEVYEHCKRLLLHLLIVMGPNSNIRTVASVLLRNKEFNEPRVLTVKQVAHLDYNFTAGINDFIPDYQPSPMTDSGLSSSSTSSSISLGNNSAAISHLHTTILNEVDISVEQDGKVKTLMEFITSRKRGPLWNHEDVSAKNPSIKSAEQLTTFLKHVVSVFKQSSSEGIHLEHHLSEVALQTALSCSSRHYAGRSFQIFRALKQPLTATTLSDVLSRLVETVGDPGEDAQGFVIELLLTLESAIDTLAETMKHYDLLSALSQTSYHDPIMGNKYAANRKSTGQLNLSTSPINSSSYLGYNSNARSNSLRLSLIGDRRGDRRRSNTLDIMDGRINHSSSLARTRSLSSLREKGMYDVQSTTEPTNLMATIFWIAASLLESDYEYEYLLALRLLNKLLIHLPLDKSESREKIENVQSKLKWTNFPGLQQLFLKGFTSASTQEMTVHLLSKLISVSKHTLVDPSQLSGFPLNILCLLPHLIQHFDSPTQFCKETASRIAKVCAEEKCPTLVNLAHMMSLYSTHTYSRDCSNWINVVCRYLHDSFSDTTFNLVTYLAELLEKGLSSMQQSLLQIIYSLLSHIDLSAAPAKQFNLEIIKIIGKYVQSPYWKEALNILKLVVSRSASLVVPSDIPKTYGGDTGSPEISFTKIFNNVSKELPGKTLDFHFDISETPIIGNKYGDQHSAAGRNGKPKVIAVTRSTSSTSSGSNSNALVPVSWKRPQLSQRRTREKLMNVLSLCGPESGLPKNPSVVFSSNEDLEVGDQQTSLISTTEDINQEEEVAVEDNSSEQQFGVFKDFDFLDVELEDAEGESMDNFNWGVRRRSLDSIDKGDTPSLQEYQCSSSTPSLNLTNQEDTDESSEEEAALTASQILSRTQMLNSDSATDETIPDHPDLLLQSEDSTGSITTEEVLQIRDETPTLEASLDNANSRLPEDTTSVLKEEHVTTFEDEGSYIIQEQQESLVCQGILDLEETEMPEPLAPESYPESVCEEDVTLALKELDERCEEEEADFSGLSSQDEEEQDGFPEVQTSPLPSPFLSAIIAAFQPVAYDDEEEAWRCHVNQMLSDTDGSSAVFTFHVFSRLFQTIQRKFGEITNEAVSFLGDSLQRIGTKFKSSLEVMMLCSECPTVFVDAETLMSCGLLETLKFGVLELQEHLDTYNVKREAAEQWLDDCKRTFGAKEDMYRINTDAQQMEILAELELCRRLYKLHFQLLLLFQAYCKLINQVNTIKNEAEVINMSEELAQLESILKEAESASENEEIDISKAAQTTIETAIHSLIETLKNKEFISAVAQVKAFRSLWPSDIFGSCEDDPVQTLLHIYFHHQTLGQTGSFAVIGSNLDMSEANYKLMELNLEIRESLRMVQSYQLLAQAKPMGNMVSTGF", "UniProt O95249": "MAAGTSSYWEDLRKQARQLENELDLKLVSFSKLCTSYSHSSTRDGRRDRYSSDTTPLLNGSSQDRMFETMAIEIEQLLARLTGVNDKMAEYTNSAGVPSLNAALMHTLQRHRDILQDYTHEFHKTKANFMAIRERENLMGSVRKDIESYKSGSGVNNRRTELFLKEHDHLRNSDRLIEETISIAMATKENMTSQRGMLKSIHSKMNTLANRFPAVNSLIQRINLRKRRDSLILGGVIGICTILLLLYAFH", "UniProt O95567": "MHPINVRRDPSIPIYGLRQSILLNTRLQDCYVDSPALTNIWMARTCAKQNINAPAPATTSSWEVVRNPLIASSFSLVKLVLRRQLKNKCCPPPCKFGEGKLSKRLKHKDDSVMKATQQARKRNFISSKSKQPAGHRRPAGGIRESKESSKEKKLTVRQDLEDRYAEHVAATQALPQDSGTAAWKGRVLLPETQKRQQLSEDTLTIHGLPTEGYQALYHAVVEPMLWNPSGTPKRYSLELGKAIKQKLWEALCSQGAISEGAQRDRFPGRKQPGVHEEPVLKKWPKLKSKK"}, "source": "the supplement of paper PMC12819154", "about": "“High-throughput peptide-centric local stability assay extends protein–ligand identification to membrane proteins, tissues and bacteria” (Nature Structural & Molecular Biology, 2025)", "note": "Some of the results follow. Most values lie at the level of the controls, where differences are scatter."}
{"compound": "CN[C@@H]1C[C@H]2O[C@@](C)([C@@H]1OC)n1c3ccccc3c3c4c(c5c6ccccc6n2c5c31)C(=O)NC4 [staurosporine]", "assay": "log2 fold change of tryptic peptide abundance, ligand vs vehicle (limited proteolysis) (log2 ratio); higher = more trypsin-susceptible (destabilized)", "details": "ligand concentration: 20 uM; sample: K562 cleared lysate; digestion: 4 min, 22 C (HT-PELSA RT4min, Orbitrap Astral)"}
{"target": "TADA2A (peptide sequence: TYDHLKK, peptide start residue: 302) (UniProt O75478)", "log2 fold change": 0.234}
{"target": "MYCBP2 (peptide sequence: ALPTMEAHQVIK, peptide start residue: 3334) (UniProt O75592)", "log2 fold change": 0.291}
{"target": "PRKRA (peptide sequence: HRAAEAAINILK, peptide start residue: 89) (UniProt O75569)", "log2 fold change": 0.705}
{"target": "FGFR1OP (peptide sequence: TSAQTTPSKIPR, peptide start residue: 165) (UniProt O95684)", "log2 fold change": 0.245}
{"target": "IDH1 (peptide sequence: DATNDQVTKDAAEAIKK, peptide start residue: 50) (UniProt O75874)", "log2 fold change": 0.206}
{"target": "HSPA4L (peptide sequence: QVYVDKLQELK, peptide start residue: 672) (UniProt O95757)", "log2 fold change": 0.346}
{"target": "YEATS4 (peptide sequence: GVTIVKPIVYGNVAR, peptide start residue: 18) (UniProt O95619)", "log2 fold change": -0.18}
{"target": "UniProt O95071 (peptide sequence: EVVFVEDVK, peptide start residue: 655)", "log2 fold change": -0.16}
{"target": "UniProt O95696 (peptide sequence: LDAGLTNGFGGAR, peptide start residue: 819)", "log2 fold change": -0.382}
{"target": "UniProt O95870 (peptide sequence: GVALLRPEPLHR, peptide start residue: 179)", "log2 fold change": 0.0847}
{"target": "KIF4A (peptide sequence: GGFVPYRDSK, peptide start residue: 283) (UniProt O95239)", "log2 fold change": 0.384}
{"target": "TRIO (peptide sequence: LQLTDLLIKPVQR, peptide start residue: 2091) (UniProt O75962)", "log2 fold change": 0.241}
{"target": "NUP155 (peptide sequence: MKKPLHLLDCIHVLLIR, peptide start residue: 1317) (UniProt O75694)", "log2 fold change": 0.757}
{"target": "UniProt O75897 (peptide sequence: KLDDKVLDK, peptide start residue: 221)", "log2 fold change": 0.00538}
{"target": "LYPLA2 (peptide sequence: TYPGVMHSSCPQEMAAVK, peptide start residue: 204) (UniProt O95372)", "log2 fold change": 0.162}
{"target": "GCAT (peptide sequence: MADDMLKR, peptide start residue: 362) (UniProt O75600)", "log2 fold change": 0.663}
{"target": "ZBTB7A (peptide sequence: DGCNGVPSR, peptide start residue: 488) (UniProt O95365)", "log2 fold change": -0.263}
{"target": "TACC1 (peptide sequence: DGHATDEEK, peptide start residue: 500) (UniProt O75410)", "log2 fold change": 1.03}
{"target": "POLQ (peptide sequence: TPIFGGRPLDILTYK, peptide start residue: 461) (UniProt O75417)", "log2 fold change": 0.236}
{"target": "UniProt O94826 (peptide sequence: WKEVAQDCTK, peptide start residue: 169)", "log2 fold change": 0.3}
{"target": "UniProt O75947 (peptide sequence: SWNETLTSR, peptide start residue: 33)", "log2 fold change": -0.0978}
{"target": "TULP3 (peptide sequence: TANYLISIDPVDLSR, peptide start residue: 246) (UniProt O75386)", "log2 fold change": 0.239}
{"target": "MFN2 (peptide sequence: WDASASEPEYMEEVRR, peptide start residue: 260) (UniProt O95140)", "log2 fold change": -0.501}
{"target": "ZFAND5 (peptide sequence: ADTSLNNCEGAAGSTSEK, peptide start residue: 69) (UniProt O76080)", "log2 fold change": -0.228}
{"target": "MRPL33 (peptide sequence: EKLTLLHYDPVVK, peptide start residue: 39) (UniProt O75394)", "log2 fold change": -0.161}
{"target": "BCL10 (peptide sequence: SNSDESNFSEK, peptide start residue: 136) (UniProt O95999)", "log2 fold change": -0.123}
{"target": "UniProt O95153 (peptide sequence: GGLPVIEGPR, peptide start residue: 1450)", "log2 fold change": -0.0186}
{"target": "UniProt O95521 (peptide sequence: WKLQVLDLR, peptide start residue: 117)", "log2 fold change": 0.194}
{"target": "RTN3 (peptide sequence: SYDILER, peptide start residue: 789) (UniProt O95197)", "log2 fold change": -0.225}
{"target": "FRYL (peptide sequence: QIPVHPVPDPLVHEVLNLAFK, peptide start residue: 137) (UniProt O94915)", "log2 fold change": -0.787}
{"target": "UniProt O77932 (peptide sequence: GAEKTEVAEPR, peptide start residue: 9)", "log2 fold change": -0.109}
{"target": "SMC2 (peptide sequence: TKFVDGVSTVAR, peptide start residue: 1159) (UniProt O95347)", "log2 fold change": 0.226}
{"target": "GOSR1 (peptide sequence: RTELFLK, peptide start residue: 159) (UniProt O95249)", "log2 fold change": 0.155}
{"target": "UniProt O95567 (peptide sequence: NPLIASSFSLVK, peptide start residue: 67)", "log2 fold change": 0.371}
{"target": "NFAT5 (peptide sequence: IVVQPETQHR, peptide start residue: 284) (UniProt O94916)", "log2 fold change": 0.463}
{"target": "ETHE1 (peptide sequence: TLYHSVHEK, peptide start residue: 173) (UniProt O95571)", "log2 fold change": -0.6}
